Values from PubChem BioAssay AID652243 (Drosophila RNAi Screening Center, 2013).

Purpose: 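Fly genes required for human androgen receptor driven transcription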 (primary screen)
System: Drosophila S2R+ cells
Reagent: long dsRNA against Drosophila genes
Timing: 72 h (48 h, then 24 h hormone)
Challenge: synthetic androgen R1881 at 10 nM for 24 h
Detection: 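Firefly light from an androgen-responsive reporter and Renilla control light per well, raw and unnormalised, for each of two replicates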
Direction: firefly reporter light: higher = more light from androgen-responsive reporter; Renilla control light: higher = more constitutive control signal (cell number, transfection)
Active means: 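Across duplicate plates, a knock-down whose log firefly/Renilla ratio shifted a set fold down or up from the GFP/LacZ control mean was a hit; the downward cut appears as both 1.5 and 3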
Calls: active = hit: reporter lowered or raised; inactive = no hit
In all, the deposit lists about 24,000 reagents; below is an unselected part of those that have a named target and a result. In the full data, 246 (1%) were called active. 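Plates not normalised; calls are printed but the firefly/Renilla ratio behind them is not deposited; fold cut for lowering reported inconsistently.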 Raw values vary from plate to plate and are shown uncorrected. Entries without a mark were called inactive. The numbers tell different reagents against one gene apart. Names joined by + are all predicted targets of the reagent. The record does not give: the amount of reagent.

target | dsRNA no. | firefly reporter light, replicate 1 | firefly reporter light, replicate 2 | Renilla control light, replicate 1 | Renilla control light, replicate 2
lqfR | 1 | 41379 | 32936 | 96545 | 1.05e5
lqfR | 2 | 2.00e5 | 2.58e5 | 3.07e6 | 3.72e6
lqfR | 3 | 7.66e5 | 7.36e5 | 9.83e5 | 8.86e5
bbc | 1 | 3.59e5 | 3.78e5 | 3.15e6 | 3.48e6
bbc | 2 | 5.51e5 | 5.69e5 | 2.03e6 | 1.62e6
CG8746 | 1 | 1.82e5 | 2.33e5 | 1.61e6 | 1.55e6
scat | 1 | 7.78e5 | 1.00e6 | 1.70e6 | 2.11e6
scat | 2 | 4.08e5 | 3.28e5 | 8.68e5 | 5.83e5
milt | 1 | 1.21e5 | 1.20e5 | 5.07e5 | 4.27e5
milt | 2 | 1.57e5 | 1.67e5 | 5.94e5 | 6.05e5
milt | 3 | 5.77e5 | 6.17e5 | 2.06e6 | 1.89e6
milt | 4 | 8.81e5 | 4.87e5 | 2.10e6 | 1.29e6
CngA | 1 | 46309 | 57217 | 7.63e5 | 7.63e5
CngA | 2 | 1.37e5 | 1.22e5 | 1.79e6 | 1.79e6
CngA | 3 | 9.47e5 | 6.04e5 | 1.07e6 | 7.31e5
CG30089 | 1 | 1.20e6 | 1.15e6 | 2.06e6 | 1.82e6
CG30089 | 2 | 1.17e5 | 1.21e5 | 2.82e6 | 2.82e6
CG30089 | 3 | 3.73e5 | 3.71e5 | 2.78e6 | 3.73e6
CG32642 | 1 | 6.46e5 | 5.25e5 | 7.05e5 | 3.60e5
CG32642 | 2 | 9.23e5 | 7.38e5 | 1.82e6 | 1.31e6
IM33 | 1 | 1.76e5 | 1.45e5 | 1.10e6 | 7.69e5
IM33 | 2 | 7.51e5 | 9.24e5 | 6.26e5 | 9.68e5
Cpr65Au | 1 | 9.60e5 | 8.91e5 | 1.33e6 | 9.07e5
jp | 1 | 8.27e5 | 5.87e5 | 2.14e6 | 2.30e6
CG15343 | 1 | 3.65e5 | 4.14e5 | 3.79e6 | 3.31e6

Part of the list above, showing only “firefly reporter light, replicate 1”.
lqfR #2	2.00e5
lqfR #3	7.66e5
bbc #1	3.59e5
bbc #2	5.51e5
CG8746	1.82e5
scat #1	7.78e5

Next entries follow:
target | dsRNA no. | firefly reporter light, replicate 1 | firefly reporter light, replicate 2 | Renilla control light, replicate 1 | Renilla control light, replicate 2
RpL28 + snoRNA:Or-CD12 | 1 | 1.65e5 | 1.75e5 | 1.22e6 | 1.52e6
Rab21 | 1 | 1.81e5 | 1.93e5 | 4.81e5 | 4.20e5
Rab21 | 2 | 3.85e5 | 4.56e5 | 1.52e6 | 2.01e6
Gpo1 | 1 | 1.56e6 | 1.43e6 | 2.84e6 | 2.61e6
CG34057 | 1 | 58467 | 84537 | 6.80e5 | 6.53e5
trx | 1 | 74531 | 49323 | 2.77e5 | 2.66e5
trx | 2 | 4.35e5 | 4.25e5 | 1.08e6 | 1.46e6
Ance-3 | 1 | 2.44e5 | 2.52e5 | 1.92e6 | 2.27e6
Ance-3 | 2 | 1.96e5 | 1.93e5 | 1.26e6 | 1.38e6
dpa | 1 | 3.21e5 | 2.45e5 | 2.00e6 | 1.65e6
Ank2 | 1 | 1.76e5 | 1.60e5 | 3.98e5 | 3.42e5
Ank2 | 2 | 2.04e5 | 2.28e5 | 2.08e6 | 2.90e6
Ank2 | 3 | 1.19e5 | 1.50e5 | 1.11e6 | 1.36e6
Ank2 | 4 | 1.60e5 | 1.53e5 | 1.81e6 | 1.53e6
Ank2 | 5 | 6.25e5 | 1.39e6 | 1.44e6 | 2.60e6
Ank2 | 6 | 3.55e5 | 3.61e5 | 1.19e6 | 1.33e6
